Results are given in words; binding and its absence hold for the method and conditions named. In cells and extracts the contact can be indirect. Some entries that bind do so weakly or less than the wild type.
Target: Low-density lipoprotein receptor-related protein 4 (mouse (endogenous in C2C12)) (UniProt Q8VI56)
Experiment: co-IP; C2C12 cells treated with 10 ug/mL LRP4 antibody for 30 min, lysed in 50 mM Tris, 100 mM NaCl, 0.5% Triton X-100, pH 7.5, 1 mM PMSF; anti-SNX17, anti-LRP4 or control IgG on protein A/G magnetic beads, 4°C 12 h; western blotting

Chains of the proteins cited; added tags and fusions are not shown. Residues count along the entry.
UniProt Q8VI56, residues 21-1905: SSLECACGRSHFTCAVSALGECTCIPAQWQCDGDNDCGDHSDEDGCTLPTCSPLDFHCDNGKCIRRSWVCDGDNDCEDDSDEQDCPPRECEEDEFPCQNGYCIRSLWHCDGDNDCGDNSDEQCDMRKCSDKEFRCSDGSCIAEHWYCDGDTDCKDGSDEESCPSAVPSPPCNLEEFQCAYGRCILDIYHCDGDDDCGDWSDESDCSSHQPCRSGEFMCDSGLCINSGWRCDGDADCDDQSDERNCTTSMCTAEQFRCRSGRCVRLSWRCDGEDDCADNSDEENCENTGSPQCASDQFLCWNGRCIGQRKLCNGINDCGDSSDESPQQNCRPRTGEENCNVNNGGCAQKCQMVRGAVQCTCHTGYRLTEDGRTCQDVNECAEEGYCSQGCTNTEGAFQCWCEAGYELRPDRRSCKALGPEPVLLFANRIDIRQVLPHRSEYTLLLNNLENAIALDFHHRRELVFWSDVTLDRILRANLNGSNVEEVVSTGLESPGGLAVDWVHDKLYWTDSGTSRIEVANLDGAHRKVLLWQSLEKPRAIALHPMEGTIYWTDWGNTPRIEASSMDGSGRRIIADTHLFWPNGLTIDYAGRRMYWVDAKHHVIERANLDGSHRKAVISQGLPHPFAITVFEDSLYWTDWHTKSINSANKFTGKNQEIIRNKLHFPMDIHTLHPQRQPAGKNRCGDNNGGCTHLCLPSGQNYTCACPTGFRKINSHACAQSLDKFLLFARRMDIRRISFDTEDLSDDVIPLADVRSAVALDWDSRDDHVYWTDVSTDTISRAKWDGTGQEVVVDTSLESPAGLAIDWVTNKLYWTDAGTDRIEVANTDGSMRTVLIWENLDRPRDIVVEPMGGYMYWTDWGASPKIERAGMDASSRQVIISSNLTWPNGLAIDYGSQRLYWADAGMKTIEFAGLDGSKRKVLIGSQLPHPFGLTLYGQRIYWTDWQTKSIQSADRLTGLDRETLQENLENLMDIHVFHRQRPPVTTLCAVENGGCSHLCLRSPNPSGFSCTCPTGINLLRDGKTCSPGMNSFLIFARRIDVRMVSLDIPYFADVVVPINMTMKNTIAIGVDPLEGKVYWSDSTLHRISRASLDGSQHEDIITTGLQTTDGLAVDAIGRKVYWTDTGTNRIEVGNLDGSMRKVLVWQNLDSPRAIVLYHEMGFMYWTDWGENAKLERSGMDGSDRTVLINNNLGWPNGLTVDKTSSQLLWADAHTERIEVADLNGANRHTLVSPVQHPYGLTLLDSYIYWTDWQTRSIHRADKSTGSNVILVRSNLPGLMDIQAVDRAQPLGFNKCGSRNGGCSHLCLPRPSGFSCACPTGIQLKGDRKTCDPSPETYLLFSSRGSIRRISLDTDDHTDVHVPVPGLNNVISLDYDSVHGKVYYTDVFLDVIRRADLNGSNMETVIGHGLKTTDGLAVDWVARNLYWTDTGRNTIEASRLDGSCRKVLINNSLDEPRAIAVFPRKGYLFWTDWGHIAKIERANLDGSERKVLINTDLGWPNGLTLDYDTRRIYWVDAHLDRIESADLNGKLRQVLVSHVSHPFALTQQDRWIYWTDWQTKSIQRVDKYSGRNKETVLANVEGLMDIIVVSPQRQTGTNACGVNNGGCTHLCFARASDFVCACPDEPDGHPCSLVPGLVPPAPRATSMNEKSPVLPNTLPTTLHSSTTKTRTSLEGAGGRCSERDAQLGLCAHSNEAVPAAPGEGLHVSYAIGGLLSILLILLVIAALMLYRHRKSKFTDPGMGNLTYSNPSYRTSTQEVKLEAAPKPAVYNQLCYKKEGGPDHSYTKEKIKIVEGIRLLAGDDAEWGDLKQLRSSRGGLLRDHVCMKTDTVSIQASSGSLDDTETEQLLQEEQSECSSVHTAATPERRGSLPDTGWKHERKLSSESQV

binding: binds
B1: Sorting nexin 17 (protein, UniProt Q8BVL3 1-470)
chain: MHFSIPETESRSGDSGGSAYVAYNIHVNGVLHCRVRYSQLLGLHEQLRKEYGANVVPAFPPKKLFSLTPAEVEQRREQLEKYMQAVRQDPLLGSSETFNSFLRRAQQETQQVPTEEVSLEVLLSNGQKVLVTVLTSDQTEDVLEAVAAKLDLPDDLIGYFSLFLVREKEDGAFSFVRKLQEFELPYVSVTSLRSQEYKIVLRKSYWDSAYDDDVMENRVGLNLLYAQTVSDIEHGWILVTKEQHRQLKSLQEKVSKKEFLRLAQTLRHYGYLRFDACVADFPEKDCPVVVSAGNSELSLQLRLPGQQLREGSFRVTRMRCWRVTSSVPLPSGGTSSPSRGRGEVRLELAFEYLMSKDRLQWVTITSPQAIMMSICLQSMVDELMVKKSGGSIRKMLRRRVGGTLRRSDSQQAVKSPPLLESPDASRESMVKLSSKLSAVSLRGIGSPSTDASASAVHGNFAFEGIGDEDL

From PMC9601310
